Data published in paper PMC8334859, “MIR156-Targeted SPL9 Is Phosphorylated by SnRK2s and Interacts With ABI5 to Enhance ABA Responses in Arabidopsis” (Frontiers in Plant Science, 2021).

Legend:
[1] = biological target: T1, nLUC-ABI5 (Arabidopsis thaliana) (UniProt Q9SJN0); assay: split reporter; firefly luciferase complementation imaging (LCI); nLUC and cLUC fusions co-injected by Agrobacterium GV3101 into N. benthamiana leaves; LUC activity imaged with NightSHADE LB 985
T1 sequence: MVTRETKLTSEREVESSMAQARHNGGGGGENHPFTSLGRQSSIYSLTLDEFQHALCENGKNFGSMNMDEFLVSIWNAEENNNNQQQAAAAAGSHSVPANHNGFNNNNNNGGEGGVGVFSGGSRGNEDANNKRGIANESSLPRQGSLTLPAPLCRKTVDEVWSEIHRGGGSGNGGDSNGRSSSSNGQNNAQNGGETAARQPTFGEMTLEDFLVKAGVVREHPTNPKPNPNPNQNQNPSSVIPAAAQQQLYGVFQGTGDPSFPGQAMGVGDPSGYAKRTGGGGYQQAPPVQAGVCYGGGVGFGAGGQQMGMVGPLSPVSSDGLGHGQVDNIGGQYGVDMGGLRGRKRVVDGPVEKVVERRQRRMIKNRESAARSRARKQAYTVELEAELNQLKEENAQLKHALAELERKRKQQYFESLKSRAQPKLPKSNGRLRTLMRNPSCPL

[2] = biological target: T2, nLUC-SnRK2.6 (Arabidopsis thaliana) (UniProt Q940H6); assay: as above
T2 sequence: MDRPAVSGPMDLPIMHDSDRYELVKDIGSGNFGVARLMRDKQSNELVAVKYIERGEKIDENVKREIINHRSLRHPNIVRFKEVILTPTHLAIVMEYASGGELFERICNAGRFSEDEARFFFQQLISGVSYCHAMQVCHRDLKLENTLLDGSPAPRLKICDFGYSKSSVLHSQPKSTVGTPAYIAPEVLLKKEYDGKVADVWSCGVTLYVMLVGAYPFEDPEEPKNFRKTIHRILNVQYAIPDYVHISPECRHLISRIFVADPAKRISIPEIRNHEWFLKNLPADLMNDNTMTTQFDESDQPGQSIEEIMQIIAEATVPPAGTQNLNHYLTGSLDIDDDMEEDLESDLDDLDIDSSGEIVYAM

## SPL9 C (carboxyl-terminal truncated version), fused to cLUC (Arabidopsis thaliana) (domain or fragment)
[1]
  binding: binds
[2]
  binding: binds

No constants are given. Whether binding was seen depends on the method and setting. In cells and extracts the contact can be indirect. A result given as binding can be weak or reduced; the word gives no strength. Tags and fused reporters may be left off the sequences shown.
